Record: PubChem BioAssay AID652243 (Drosophila RNAi Screening Center, 2013)

Assay: 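Fly genes required for human androgen receptor driven transcription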 (primary screen)
System: Drosophila S2R+ cells
Reagents: long dsRNA against Drosophila genes
Duration: 72 h (48 h, then 24 h hormone)
Challenge: synthetic androgen R1881 at 10 nM for 24 h
Measured: 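Per-well raw luminescence of the androgen-driven firefly reporter and of the Renilla control, two replicates each, without normalisation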
Scale: firefly reporter light: higher = more light from androgen-responsive reporter; Renilla control light: higher = more constitutive control signal (cell number, transfection)
Hit rule: 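Across duplicate plates, a knock-down whose log firefly/Renilla ratio shifted a set fold down or up from the GFP/LacZ control mean was a hit; the downward cut appears as both 1.5 and 3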
Meaning of the calls: active = hit: reporter lowered or raised; inactive = no hit
The deposit covers about 24,000 reagents; below is an unselected part of those with a known target gene and a result. In the full data, 246 (1%) are marked active. 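Plates not normalised; calls are printed but the firefly/Renilla ratio behind them is not deposited; fold cut for lowering reported inconsistently.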 The raw values are shown without normalisation. Unmarked entries are inactive. The numbers tell different reagents against one gene apart. Names joined by + are all predicted targets of the reagent. The record does not give: the amount of reagent.

target gene	dsRNA no.	firefly reporter light, replicate 1	firefly reporter light, replicate 2	Renilla control light, replicate 1	Renilla control light, replicate 2
CG5493 + CG5327	1	1.61e5	1.49e5	2.11e6	2.04e6
CHMP2B (Charged multivesicular body protein 2b)	1	5.94e5	4.70e5	1.19e6	9.51e5
CHMP2B (Charged multivesicular body protein 2b)	2	3.27e5	2.65e5	7.16e5	7.07e5
CG17325 + CG42305	1	1.74e5	1.86e5	1.92e6	2.24e6
CG14605	1	84796	64969	1.38e6	1.95e6
CG14605	2	4.98e5	7.19e5	1.49e6	1.52e6
CG14275	1	1.23e5	2.13e5	1.61e6	1.67e6
CG14275	2	2.66e5	1.64e5	5.58e5	4.09e5
nsl1 (non-specific lethal 1)	1	96462	90664	25935	13250
Lcch3 (Ligand-gated chloride channel homolog 3)	1	1.11e6	8.01e5	1.98e6	1.86e6
CG10097 + CG10096	1	37023	82905	3.15e5	6.86e5
CG10097 + CG10096	2	1.55e5	1.24e5	2.55e6	2.85e6
Cyp6a8 (Cytochrome P450 6a8)	1	8.91e5	8.42e5	2.64e6	2.34e6
euc (eucalyptus)	1	2.57e5	2.59e5	4.02e6	3.54e6
Obp69a (Odorant-binding protein 69a)	1	1.80e5	1.40e5	1.92e6	1.59e6
Obp69a (Odorant-binding protein 69a)	2	2.20e5	2.16e5	4.02e5	5.99e5
seq (sequoia)	1	5.25e5	4.58e5	1.30e6	1.49e6
Cyp6a21 (Cytochrome P450 6a21)	1	1.55e5	1.64e5	2.97e6	2.97e6
Gr98b (Gustatory receptor 98b)	1	6.31e5	6.92e5	1.75e6	1.63e6
CG43347	1	7.17e5	7.07e5	1.91e6	2.00e6
CG43347	2	6.77e5	5.78e5	1.16e6	8.09e5
CG43347	3	1.84e5	3.29e5	7.05e5	5.45e5
CG43347	4	1.12e6	7.12e5	1.81e6	1.81e6
sol (small optic lobes)	1	2.03e5	2.28e5	7.05e5	5.39e5
sol (small optic lobes)	2	2.60e5	2.14e5	6.33e5	7.35e5
Ugt36A1 + CG15418	1	1.60e5	1.44e5	1.18e6	1.18e6
Ugt36A1 + CG15418	2	8.99e5	7.95e5	6.90e5	6.05e5
Arp53D (Actin-related protein 53D)	1	48129	86082	1.28e6	1.28e6
RpL26 (Ribosomal protein L26)	1	1.62e5	2.12e5	1.27e6	2.10e6

A run of entries taken from the entries so far, as a working copy:
target gene	dsRNA no.	firefly reporter light, replicate 1	firefly reporter light, replicate 2	Renilla control light, replicate 1	Renilla control light, replicate 2
Gr98b (Gustatory receptor 98b)	1	6.31e5	6.92e5	1.75e6	1.63e6
CG43347	1	7.17e5	7.07e5	1.91e6	2.00e6
CG43347	2	6.77e5	5.78e5	1.16e6	8.09e5
CG43347	3	1.84e5	3.29e5	7.05e5	5.45e5
CG43347	4	1.12e6	7.12e5	1.81e6	1.81e6
sol (small optic lobes)	1	2.03e5	2.28e5	7.05e5	5.39e5
sol (small optic lobes)	2	2.60e5	2.14e5	6.33e5	7.35e5
Ugt36A1 + CG15418	1	1.60e5	1.44e5	1.18e6	1.18e6
Ugt36A1 + CG15418	2	8.99e5	7.95e5	6.90e5	6.05e5

More records:
target gene	dsRNA no.	firefly reporter light, replicate 1	firefly reporter light, replicate 2	Renilla control light, replicate 1	Renilla control light, replicate 2
CG34150	1	8.28e5	7.70e5	1.95e6	1.78e6
CG6184	1	2.33e5	3.13e5	2.91e6	2.96e6
ArfGAP3 (ADP-ribosylation factor GTPase activating protein 3)	1	33948	56548	4.74e5	5.08e5
ArfGAP3 (ADP-ribosylation factor GTPase activating protein 3)	2	5.95e5	8.13e5	7.75e5	8.11e5
daw (dawdle)	1	8.57e5	9.54e5	2.66e6	1.60e6
daw (dawdle)	2	9.80e5	1.21e6	1.03e6	1.07e6
daw (dawdle)	3	1.79e6	1.34e6	1.67e6	1.65e6
CG5758	1	1.46e5	1.00e5	1.63e6	1.37e6
CG5758	2	1.66e5	2.24e5	1.63e6	1.94e6
CG5758	3	5.72e5	5.56e5	8.92e5	8.92e5
CG31510	1	1.41e5	1.98e5	2.01e6	2.48e6
JhI-21 (Juvenile hormone Inducible-21)	1	5.05e5	6.51e5	1.39e6	2.07e6
JhI-21 (Juvenile hormone Inducible-21)	2	5.08e5	3.66e5	1.53e6	1.64e6
p120ctn (p120 catenin)	1	73466	64025	6.84e5	1.12e6
CG30096	1	4.56e5	3.27e5	2.63e6	2.18e6
CG1463	1	70150	1.04e5	5.81e5	5.16e5
CG32202	1	3.37e5	2.41e5	1.98e6	2.23e6
ckd (cracked)	1	1.58e5	2.19e5	2.03e6	2.92e6
thoc7	1	6.21e5	6.62e5	1.36e6	6.20e5
thoc7	2	6.05e5	6.03e5	7.53e5	7.53e5
CG42245 + MEP-1	1	1.80e5	1.88e5	4.88e5	6.48e5
CG42245 + MEP-1	2	1.00e6	4.79e5	9.88e5	7.08e5
CG42245 + MEP-1	3	8.70e5	9.28e5	2.13e6	2.25e6
CG42245 + MEP-1	4	5.09e5	6.11e5	7.90e5	7.90e5
l(2)k09022 (lethal (2) k09022)	1	9.23e5	1.09e6	2.42e6	2.12e6
asRNA:Eig63F-2 + Eip63F-1	1	6.25e5	5.67e5	1.38e6	1.16e6
CG5539	1	1.56e5	1.39e5	1.64e6	1.15e6
CG30491	1	6.49e5	6.42e5	1.51e6	1.34e6
CG30491	2	6.50e5	6.49e5	6.33e5	6.12e5
